Reference: patent CN117425675A
Results are given in words; binding and its absence hold for the method and conditions named. Some binding calls cover weakened binding; strength is not graded here.

Sequences of proteins named here, by UniProt entry; tags and fusion partners are left off. A change or cut given only in a name is not applied to a line headed by its entry.
UniProt P20333: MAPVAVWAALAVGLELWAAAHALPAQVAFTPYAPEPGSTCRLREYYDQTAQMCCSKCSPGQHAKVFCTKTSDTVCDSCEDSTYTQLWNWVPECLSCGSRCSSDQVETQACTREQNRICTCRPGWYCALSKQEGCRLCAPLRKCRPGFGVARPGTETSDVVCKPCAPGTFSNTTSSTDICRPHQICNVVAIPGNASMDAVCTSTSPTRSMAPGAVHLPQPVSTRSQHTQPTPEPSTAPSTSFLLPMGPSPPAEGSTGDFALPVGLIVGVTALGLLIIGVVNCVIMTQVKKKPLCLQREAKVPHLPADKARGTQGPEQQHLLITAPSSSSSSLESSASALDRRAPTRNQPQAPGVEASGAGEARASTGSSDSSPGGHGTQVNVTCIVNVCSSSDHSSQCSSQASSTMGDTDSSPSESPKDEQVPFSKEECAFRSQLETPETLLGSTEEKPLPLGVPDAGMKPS

Assays:
[1] = target: human TNFR2 expressed on cells (stably overexpressed on HEK293T, CHO-K1 or Jurkat cells; endogenous on THP1) (human (Homo sapiens)) (UniProt P20333); assay: cell binding (flow cytometry / imaging)
[2] = target: human TNFR2 expressed on cells (stably overexpressed on HEK293T, CHO-K1 or Jurkat cells; endogenous on THP1) (human (Homo sapiens)) (UniProt P20333); assay: flow cytometry on HEK293T cells stably overexpressing human TNFR2

binding [1]: binds | binding [2]: binds
B1: R2_mAb-3 (antibody, V domains shown)
VH: QVQLQESGPGLVKPSETLSLTCTVSGGSISSYYWSWIRQAPGKGLEWIGYIYYSGSTNYNPSLKSRVTISVDTSKNQFSLKLSSVTAADTAVYYCARDDGSSDYGMDVWGQGTTVTVSS
VL: AIQLTQSPSSLSASVGDRVTITCRASQGISSALAWYQQKPGKAPKLLIYDASSLESGVPSRFTGSGTDFTLTISSLQPEDFATYYCQQFNNYMYTFGQGTKLEIK
